From patent publication US12435294B2, “Prevention of the oxidation of perfumery raw materials and food raw materials” (Firmenich SA, priority 2018, dated 2025)

Test: Appearance / color change of treated samples compared to untreated
Settings: Petitgrain oil; 0.2 mL in 10 mL

COCCOCCN(CCOCCOC)CCOCCOC.COCCOCCN(CCOCCOC)CCOCCOC.O=C(O)CCC(=O)C(=O)O [AKG-diTMEEA]
Appearance of Treated Compared to Untreated Sample: Clear, same color
